# Data: article PMC5996148
# The list shows a part of the results.
# What was measured:
# Assay in all cases: protein microarray (ProtoArray v5.0), streptavidin-Alexa Fluor 647
# Conditions in all cases: 3'-biotin; 20 mM Tris (pH 7.5), 5 mM MgCl2, 100 mM KCl, 0.1% Tween-20, A/T-rich and random oligonucleotide blockers; temperature not stated; high values mean tight binding
# [1] = system: LOC284422 (human)
# [2] = system: LOC285577 (human)
# [3] = system: LOC388589 (human)
# [4] = system: LOC400600 (human)
# [5] = system: LOC401270 (human)
# [6] = system: LOC401607 (human)
# [7] = system: LOC442582 (human)
# [8] = system: LOC51233 (human)
# [9] = system: LOC51252 (human)
# [10] = system: LOC541471 (human)
sequence,measurement,setting,value
GGTGACAGGGGTATGGGGAGGGG [G4-2 biotinylated (Ct1)],binding signal,[1],-0.359 z-score
same,binding signal,[2],-0.377 z-score
same,binding signal,[3],-0.378 z-score
same,binding signal,[4],-0.371 z-score
same,binding signal,[5],-0.369 z-score
same,binding signal,[6],-0.369 z-score
same,binding signal,[7],-0.39 z-score
same,binding signal,[8],-0.39 z-score
same,binding signal,[9],-0.375 z-score
same,binding signal,[10],-0.383 z-score
